Reference: patent US8691804B2 (Evotec AG, priority 2008, dated 2014)
The match of structure and compound is tentative.

The chains behind the UniProt entries cited, without tags or fusion partners.
UniProt Q9Y5N1, whole entry: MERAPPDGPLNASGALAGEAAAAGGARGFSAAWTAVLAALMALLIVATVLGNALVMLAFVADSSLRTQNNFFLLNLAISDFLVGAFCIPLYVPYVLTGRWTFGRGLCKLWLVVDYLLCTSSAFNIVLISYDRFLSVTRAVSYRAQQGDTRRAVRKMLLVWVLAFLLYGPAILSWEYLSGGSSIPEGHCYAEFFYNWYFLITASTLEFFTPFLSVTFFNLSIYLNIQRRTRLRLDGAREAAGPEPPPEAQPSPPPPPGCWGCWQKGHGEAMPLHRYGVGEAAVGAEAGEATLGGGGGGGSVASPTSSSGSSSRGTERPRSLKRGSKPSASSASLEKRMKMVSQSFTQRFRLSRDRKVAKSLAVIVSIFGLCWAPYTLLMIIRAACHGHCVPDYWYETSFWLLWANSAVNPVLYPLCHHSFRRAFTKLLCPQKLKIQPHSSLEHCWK

Target: human H3 receptors (Homo sapiens, UniProt Q9Y5N1)
Assay: cAMP quantification assay for human H3 receptor testing
Conditions: read-out: Potency range (IC50 values); CHO-K1 cells expressing human H3 receptors; inhibition of agonist-induced decrease of cAMP; 100 nM histamine, 10 μM forskolin
Method: CHO—K1 cell line expressing human H3 receptors were purchased from Euroscreen (Gosselies, Belgium, Cat. no.: ES-392-C)
Human H3 receptor-expressing cell-lines were grown in Ham's F12 [Sigma, Cat. no. N6658], supplemented with 10% FBS [Sigma, Cat. no. F9665], 400 μg/ml G418 [Sigma, Cat. no. N1876] and 250 μg/ml Zeocin [Invitrogen, Cat. no. 46-0509]) according to the protocol provided by Euroscreen.
The assay measures the ability of test compounds to inhibit Histamine receptor agonist-induced decrease of intracellular free cAMP (receptor is Gi coupled).
Specifically, a cAMP quantification assay system from DiscoveRx (cAMP XS+; Cat. no. 90-0075) was used.
For the cAMP assay, confluent cells were detached from the culture vessels with 1× trypsin-EDTA solution (Sigma), and seeded into 384-well Costar plates (white, clear bottom, Cat. no. 3707) at a density of 10,000 cells per well. Cells were seeded in a volume of 50 μl in medium without antibiotics and incubated overnight in a humidified atmosphere with 5% CO2 at 37° C. The cAMP assay was performed according to the protocol provided by DiscoveRx. […]
After the incubation with the agonist, 5 μl/well cAMP XS antibody solution was added followed by 20 μl/well Gal/EII/Lysis (1:5:19)+ED (1:1). […] The luminescence was developed for approximately three hours at room temperature and the plates were read out using a ‘BMG Novostar’ plate reader. […]

- IC50: < 0.1 µM
SMILES: Cc1nccc(Cl)c1OC1CN(C(=O)N2CCCN(C3CCC3)CC2)C1
